{"source": "PubChem BioAssay AID1159578 – Peter MacCallum Cancer Centre – 2015", "assay": "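Knock-downs that alter how fast lymphatic endothelial cells migrate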 (primary screen)", "cells": "human lymphatic endothelial cells", "knock-down reagent": "siRNA pool against human genes, 40 nM", "time to read-out": "48 h after transfection", "read-out": "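High-content imaging of dye-stained cells in a scratch assay measures filled wound area and nuclei per well; duplicate means given as ratio to mock and robust z-score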", "direction": "migration robust z-score: higher = faster migration into the scratch; nuclei per well: higher = more cells in the well", "active means": "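Migration changed when robust z exceeds 2 or falls below -2 and mean nuclei number is at least 3300; otherwise not called changed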", "meaning of the calls": "active = migration changed; inactive = no migration change, or too few cells", "note": "Here is a random part of about 18,000 deposited reagents. About 1,030 of all reagents (5.7%) were called active. 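Inactive calls also include pools with fewer than 3300 nuclei, whose migration was not assessed.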 The raw values are shown without normalisation. Unmarked entries are inactive. Further read-outs or replicates are left out here."}
{"gene symbol":"DCUN1D3","migration robust z-score":0.93,"nuclei per well, duplicate mean":4741}
{"gene symbol":"OPN1SW","migration robust z-score":-0.64,"nuclei per well, duplicate mean":4426}
{"gene symbol":"AKAP1","migration robust z-score":-0.86,"nuclei per well, duplicate mean":4884}
{"gene symbol":"BTBD8","migration robust z-score":0.5,"nuclei per well, duplicate mean":7298}
{"gene symbol":"RAC2","migration robust z-score":-0.7,"nuclei per well, duplicate mean":5586}
{"gene symbol":"BMP5","migration robust z-score":1.56,"nuclei per well, duplicate mean":6329}
{"gene symbol":"CLPSL1","migration robust z-score":-0.43,"nuclei per well, duplicate mean":5046}
{"gene symbol":"MICOS10","migration robust z-score":-0.3,"nuclei per well, duplicate mean":3558}
{"gene symbol":"TSN","migration robust z-score":-1.32,"nuclei per well, duplicate mean":6165}
{"gene symbol":"CAVIN3","migration robust z-score":0.3,"nuclei per well, duplicate mean":5442}
{"gene symbol":"CHRNA10","migration robust z-score":0.04,"nuclei per well, duplicate mean":6309}
{"gene symbol":"SPRYD4","migration robust z-score":0.56,"nuclei per well, duplicate mean":6520}

2 of these entries, set out differently.
gene symbol | migration robust z-score | nuclei per well, duplicate mean
BTBD8 | 0.5 | 7298
RAC2 | -0.7 | 5586
